Here are results for one substance from patent US20220281973A1.

Sequences of proteins named here, by UniProt entry; tags and fusion partners are left off. A change or cut given only in a name is not applied to a line headed by its entry.
UniProt Q9H7M9: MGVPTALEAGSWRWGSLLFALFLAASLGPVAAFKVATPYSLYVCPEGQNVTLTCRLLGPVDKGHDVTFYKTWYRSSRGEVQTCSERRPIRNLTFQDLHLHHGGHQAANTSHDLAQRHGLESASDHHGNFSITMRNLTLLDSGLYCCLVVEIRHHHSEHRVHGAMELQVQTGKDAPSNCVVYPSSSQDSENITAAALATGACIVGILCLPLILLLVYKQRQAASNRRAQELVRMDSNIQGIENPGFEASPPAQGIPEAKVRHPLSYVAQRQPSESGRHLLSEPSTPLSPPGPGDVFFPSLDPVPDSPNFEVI

In the assay the target is T1, purified LRIG1 (Example 6) (Homo sapiens (Human)) (UniProt Q96JA1).
T1 sequence: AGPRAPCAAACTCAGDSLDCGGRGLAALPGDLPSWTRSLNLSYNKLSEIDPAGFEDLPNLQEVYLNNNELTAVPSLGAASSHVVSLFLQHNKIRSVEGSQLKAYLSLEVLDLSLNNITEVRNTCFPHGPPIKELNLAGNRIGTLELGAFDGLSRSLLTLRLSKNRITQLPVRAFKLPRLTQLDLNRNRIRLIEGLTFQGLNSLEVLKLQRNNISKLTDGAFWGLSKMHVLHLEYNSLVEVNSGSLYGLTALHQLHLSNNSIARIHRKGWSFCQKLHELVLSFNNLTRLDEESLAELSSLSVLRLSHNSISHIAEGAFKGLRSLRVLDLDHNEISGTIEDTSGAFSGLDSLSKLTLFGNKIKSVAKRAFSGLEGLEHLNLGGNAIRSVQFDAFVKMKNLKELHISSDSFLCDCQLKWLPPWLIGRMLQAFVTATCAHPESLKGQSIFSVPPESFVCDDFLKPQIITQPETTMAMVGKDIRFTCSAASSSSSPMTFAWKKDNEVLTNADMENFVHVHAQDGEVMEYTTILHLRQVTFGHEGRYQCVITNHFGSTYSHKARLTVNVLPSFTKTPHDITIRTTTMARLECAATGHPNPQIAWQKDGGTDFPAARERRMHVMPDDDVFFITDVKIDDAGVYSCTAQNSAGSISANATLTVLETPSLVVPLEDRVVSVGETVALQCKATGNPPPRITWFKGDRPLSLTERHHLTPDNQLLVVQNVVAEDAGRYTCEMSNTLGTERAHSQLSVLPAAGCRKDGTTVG
Put plainly: chemical cross-linking (K200 kit) and High-Mass MALDI MS of 3.2 uM LRIG1 mixed with 0.6 uM VISTA.

No constants are given. Whether binding was seen depends on the method and setting. Some entries that bind do so weakly or less than the wild type.

For “purified VISTA (Example 6) (from UniProt Q9H7M9 33-194) (receptor)”, the binding result is listed as “binds”.
